Values from PubChem BioAssay AID652259 (Drosophila RNAi Screening Center, 2013)
The screen tested about 22,000 reagents; this is a random part of those that have a named target and a result. Over the whole deposit, 233 (1.1%) got an active call. 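Light values are raw, unnormalised plate reads; the ratio scores behind the reporter calls were not deposited.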 Not stated in the record: the amount of reagent, the time to read-out, the dose of the treatment.

Purpose: 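Identify new Wingless signalling regulators in fly cells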 (primary screen)
System: Drosophila clone 8 imaginal disc epithelial cells
Knock-down reagent: long dsRNA against Drosophila genes
Challenge: pathway stimulated by co-transfected Wingless expression plasmid
Detection: 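Firefly luciferase from a tcf-site Wingless reporter, measured alongside co-transfected Renilla luciferase that tracks transfection; pathway stimulated by a Wingless plasmid; the firefly-to-Renilla ratio is not deposited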
Reading the numbers: firefly reporter light: higher = more Wg reporter light, before normalisation; Renilla control light: higher = more transfected or surviving cells
Rule for the call: 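Strong candidates differ from their plate mean by at least two out of four per-plate statistical tests; weak candidates meet just one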
Meaning of the calls: active = candidate regulator (raises or lowers reporter); inactive = not a candidate

tilB (touch insensitive larva B) [DRSC20634] gave firefly reporter light, replicate 1 = 15361; Renilla control light, replicate 1 = 8976; inactive.
Silencing of CG10026 [DRSC02010] resulted in: firefly reporter light, replicate 1 = 2307; firefly reporter light, replicate 2 = 5099; Renilla control light, replicate 1 = 1000; Renilla control light, replicate 2 = 3069; inactive.
Knock-down of Bcat (Branched chain amino acid transaminase) [DRSC19756] came out at: firefly reporter light, replicate 1 = 23430; Renilla control light, replicate 1 = 11396; inactive.
With knock-down of PGAP5 (Post-GPI attachment to proteins 5) [DRSC03089], the screen gave firefly reporter light, replicate 1 = 2810; firefly reporter light, replicate 2 = 7159; Renilla control light, replicate 1 = 1123; Renilla control light, replicate 2 = 3433; inactive.
Depletion of fal (falten) [DRSC11087] resulted in: firefly reporter light, replicate 1 = 4541; Renilla control light, replicate 1 = 1860; inactive.
Against Sgs3 (Salivary gland secretion 3) [DRSC11280], the entry reads firefly reporter light, replicate 1 = 7784; Renilla control light, replicate 1 = 4104; inactive.
Against CG7101 [DRSC20023], the values are firefly reporter light, replicate 1 = 4736; firefly reporter light, replicate 2 = 11833; Renilla control light, replicate 1 = 2006; Renilla control light, replicate 2 = 4253; inactive.
Depletion of CG7101 [DRSC22845] gave: firefly reporter light, replicate 1 = 6.46e5; firefly reporter light, replicate 2 = 6.24e5; Renilla control light, replicate 1 = 2.46e5; Renilla control light, replicate 2 = 3.32e5; inactive.
After knock-down of Calx (Na/Ca-exchange protein) [DRSC13457], the screen gave firefly reporter light, replicate 1 = 3420; Renilla control light, replicate 1 = 1843; inactive.
For Calx (Na/Ca-exchange protein) [DRSC13459], the entry reads firefly reporter light, replicate 1 = 3056; Renilla control light, replicate 1 = 2009; inactive.
For Calx (Na/Ca-exchange protein) [DRSC16599] the deposit lists firefly reporter light, replicate 1 = 14203; Renilla control light, replicate 1 = 3385; inactive.
Calx (Na/Ca-exchange protein) [DRSC21850] gave firefly reporter light, replicate 1 = 9.91e5; firefly reporter light, replicate 2 = 6.64e5; Renilla control light, replicate 1 = 3.19e5; Renilla control light, replicate 2 = 3.48e5; inactive.
CG4631 [DRSC02766] showed firefly reporter light, replicate 1 = 6951; firefly reporter light, replicate 2 = 9802; Renilla control light, replicate 1 = 1693; Renilla control light, replicate 2 = 5046; inactive.
For CG4631 [DRSC22194], the values are firefly reporter light, replicate 1 = 8.26e5; firefly reporter light, replicate 2 = 7.86e5; Renilla control light, replicate 1 = 3.91e5; Renilla control light, replicate 2 = 3.84e5; inactive.
After knock-down of msl-1 (male-specific lethal 1) [DRSC03573], the screen gave firefly reporter light, replicate 1 = 2904; firefly reporter light, replicate 2 = 10877; Renilla control light, replicate 1 = 167; Renilla control light, replicate 2 = 2867; inactive.
After knock-down of bys (by S6) [DRSC18748] the results were firefly reporter light, replicate 1 = 2457; firefly reporter light, replicate 2 = 6001; Renilla control light, replicate 1 = 1049; Renilla control light, replicate 2 = 2544; inactive.
After knock-down of RpL12 (Ribosomal protein L12) [DRSC04344], the record shows firefly reporter light, replicate 1 = 2161; firefly reporter light, replicate 2 = 9520; Renilla control light, replicate 1 = 337; Renilla control light, replicate 2 = 2680; inactive.
After knock-down of CR17024 (pseudo) [DRSC02562], the record shows firefly reporter light, replicate 1 = 2898; firefly reporter light, replicate 2 = 10556; Renilla control light, replicate 1 = 1867; Renilla control light, replicate 2 = 5329; inactive.
MsR1 (Myosuppressin receptor 1) [DRSC08615] scored firefly reporter light, replicate 1 = 5739; Renilla control light, replicate 1 = 2624; inactive.
Against RfC3 (Replication factor C subunit 3) [DRSC03411], the values are firefly reporter light, replicate 1 = 3332; firefly reporter light, replicate 2 = 5146; Renilla control light, replicate 1 = 1098; Renilla control light, replicate 2 = 2293; inactive.
su(sable) (suppressor of sable) [DRSC18839] showed firefly reporter light, replicate 1 = 20768; Renilla control light, replicate 1 = 13861; inactive.
Pdp (Pyruvate dehydrogenase phosphatase) [DRSC17825] scored firefly reporter light, replicate 1 = 3152; firefly reporter light, replicate 2 = 7655; Renilla control light, replicate 1 = 1076; Renilla control light, replicate 2 = 2114; inactive.
With knock-down of Map60 (Microtubule-associated protein 60) [DRSC07464], the record shows firefly reporter light, replicate 1 = 13568; Renilla control light, replicate 1 = 3953; inactive.
For loj (logjam) [DRSC09791] the deposit lists firefly reporter light, replicate 1 = 9291; Renilla control light, replicate 1 = 3770; inactive.
For Ork1 (Open rectifier K[+] channel 1) [DRSC20266], the entry reads firefly reporter light, replicate 1 = 3094; firefly reporter light, replicate 2 = 5701; Renilla control light, replicate 1 = 795; Renilla control light, replicate 2 = 2240; inactive.

Reformatted: results already given.
predicted target,amplicon,"firefly reporter light, replicate 1","firefly reporter light, replicate 2","Renilla control light, replicate 1","Renilla control light, replicate 2",call
Sgs3 (Salivary gland secretion 3),DRSC11280,7784,,4104,,inactive
CG7101,DRSC20023,4736,11833,2006,4253,inactive
